These are yes or no findings as the source states them, for the method shown. Some entries that bind do so weakly or less than the wild type. Sequences can lack the tags named with a protein.
Target: T1, Nop5_(2)–Fib2 complex from Pyrococcus furiosus (P. furiosus) (UniProt Q8U4M1+Q8U4M2)
T1 sequence 1: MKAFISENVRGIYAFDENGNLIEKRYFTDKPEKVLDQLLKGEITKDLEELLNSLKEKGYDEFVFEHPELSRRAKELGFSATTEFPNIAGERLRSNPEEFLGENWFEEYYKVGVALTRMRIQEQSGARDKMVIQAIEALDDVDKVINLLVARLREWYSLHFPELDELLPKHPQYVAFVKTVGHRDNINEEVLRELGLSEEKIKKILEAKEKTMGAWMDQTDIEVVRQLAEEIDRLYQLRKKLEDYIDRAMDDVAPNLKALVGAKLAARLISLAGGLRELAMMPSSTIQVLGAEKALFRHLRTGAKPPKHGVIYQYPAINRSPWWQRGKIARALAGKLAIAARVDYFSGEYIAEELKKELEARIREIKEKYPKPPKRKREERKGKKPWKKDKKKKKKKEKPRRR
T1 sequence 2: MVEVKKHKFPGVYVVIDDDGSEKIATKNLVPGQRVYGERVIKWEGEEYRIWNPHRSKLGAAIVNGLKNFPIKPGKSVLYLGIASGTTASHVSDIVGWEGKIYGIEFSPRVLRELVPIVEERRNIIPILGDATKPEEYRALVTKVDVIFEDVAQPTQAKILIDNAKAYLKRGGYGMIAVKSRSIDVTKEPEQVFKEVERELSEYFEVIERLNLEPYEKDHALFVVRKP
Experiment: SEC; chimeric RNP: Nop5_(2)–Fib2, Snu13 and yeast guide RNA snR51 mixed 1:2:1, incubated 15 min; Superdex S200 Increase 10/300 GL; 20 mM sodium phosphate, 500 mM NaCl, pH 6.6; the guide RNA is part of the particle; both purified

B1: Snu13 from Saccharomyces cerevisiae (protein, UniProt P39990 1-126)
chain: MSAPNPKAFPLADAALTQQILDVVQQAANLRQLKKGANEATKTLNRGISEFIIMAADCEPIEILLHLPLLCEDKNVPYVFVPSRVALGRACGVSRPVIAASITTNDASAIKTQIYAVKDKIETLLI
binding: binds

Reference: article PMC8413462
